System: primary, HPV-negative oral squamous carcinoma cells (SJG-26 and SJG-41)
Assay: CellTitreGlo cell viability assay, cell line not given
Format: cell-based
Conditions: light or radiation study; cell line not stated (SJG-26 / SJG-41); not irradiated; data not shown

IC50: 1600 nM
SMILES: O=C(CCCCCCC(=O)Nc1ccccc1)NO [vorinostat]
